These are yes or no findings as the source states them, for the method shown. Some entries that bind do so weakly or less than the wild type. Where a sequence is shown, tags or fusion partners need not be part of it.
Target: T1, rat PMEL17 with an N-terminal gD tag (rat)
T1 sequence: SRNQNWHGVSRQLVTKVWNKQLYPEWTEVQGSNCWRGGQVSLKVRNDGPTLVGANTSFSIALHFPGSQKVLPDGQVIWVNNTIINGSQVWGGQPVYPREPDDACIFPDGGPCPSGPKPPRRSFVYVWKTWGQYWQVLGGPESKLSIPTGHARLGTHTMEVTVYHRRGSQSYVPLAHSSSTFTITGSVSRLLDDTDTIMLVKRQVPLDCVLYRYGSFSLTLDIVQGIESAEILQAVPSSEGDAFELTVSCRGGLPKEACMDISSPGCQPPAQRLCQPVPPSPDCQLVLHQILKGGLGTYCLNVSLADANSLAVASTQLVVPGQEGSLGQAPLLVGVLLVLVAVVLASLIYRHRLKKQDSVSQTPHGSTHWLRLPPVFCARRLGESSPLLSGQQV
Assay: FACS, 293S cells stably transfected with gD tagged PMEL17, 10 µg/ml 17A9

binding: binds
B1: 17A9 (antibody, V domains shown)
VH: EVQLQQSGPELVKPGASMKISCKSSGYSFTRYTMNWVKQSHGKNLEWIGVINPYNGGTVYNQKFKGKATLTVDKSSSTAYMELLSLTSEDSAVYYCARTDYDGYAMDYWGQGTSVTVSS
VL: DVQITQSPSYLAASPGETITINCRATKSISKYLAWYQEQPGKTNNLLIYSGSTLQSGIPSRFSGSGSGTDFTLTISSLEPEDFAMYYCQQHNEYPYTFGSGTKLEIK

Source: US20170240645A1
